Assay results: PubChem BioAssay AID504834 (National Center for Advancing Translational Sciences (NCATS), 2011)
Out of some 320,000 compounds screened, about 22,000 (6.9%) were called active. Inconclusive results, whose numbers are uncertain, are shown with a selection of clear calls. Calls follow the shape of the dose curve; as a rule, active = well fitted inhibition curve with a large enough effect; inconclusive = small, poorly fitted or top-dose-only effect, or another doubt; inactive = no such curve, though single readings can be large or run the other way. A potency beside an inconclusive call is a rough fit, not a confirmed value.

Assay: Primary qHTS for delayed death inhibitors of the malarial parasite plastid, 96 hour incubation
Conditions: P. falciparum luciferase reporter growth; series mostly up to 28.7 µM; activity change, negative = inhibition: at the top concentration
How it was run: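 Parasite growth measured via integrated firefly luciferase reporter in P. falciparum. Infected erythrocytes at 2% hematocrit, 0.05% parasitemia final were treated 96 hours at 37 C under 5% CO2, and luminescence was read.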
% is scaled to controls: 0 for no effect and ±100 for the full control effect; potency is read from the fitted curve at half-maximal effect.

Row | SMILES | Potency | activity change, negative = inhibition
1 | O=C(COc1ccc(Cl)cc1)Nc1nnc(-c2ccco2)o1 | inconclusive: 2.94 µM [inhibitor, single point] | –
2 | O=C(Nc1ccc(F)c(Cl)c1)C1CCCN(C2=NS(=O)(=O)c3ccccc32)C1 (stereo not given) | inconclusive: 14.7 µM [inhibitor, single point] | –
3 | O=S(=O)(NC1CC1)c1ccc(S(=O)(=O)N(Cc2ccccn2)C2CC2)cc1 | – | inactive: 0%
4 | FC(F)(F)c1nc(SCc2ccc(Cl)cc2Cl)n[nH]1 | – | inactive: -0.901%
5 | O=C(O)c1nc(-c2ccccc2)n(-c2cccc(C(F)(F)F)c2)n1 | inconclusive: 18.5 µM [inhibitor, single point] | –
6 | CC1Cc2cc(/C(O)=C3/C(=O)C(=O)N(Cc4cccnc4)C3c3cccc(O)c3)ccc2O1 (stereo not given) | – | inactive: 35.1%
7 | CC(C)Oc1ccc(C(=O)NCC(=O)N2CCN(S(=O)(=O)/C=C/c3ccccc3)CC2)cc1 | inconclusive: 11.7 µM [inhibitor, single point] | –
8 | CCN(c1ccccc1)S(=O)(=O)c1ccc(Cl)c(NC(=O)CN2CCN(C)CC2)c1 | inconclusive: 18.5 µM [inhibitor, single point] | –
9 | COc1cc(C2/C(=C(/O)c3ccc(OCC(C)C)cc3)C(=O)C(=O)N2CCN(C)C)ccc1O (stereo not given) | active: 11.7 µM | –
10 | COC(=O)[C@@H]1[C@@H]2C[C@H]3c4[nH]c5ccccc5c4CCN3C[C@@H]2CC[C@@H]1O | – | inactive: -22.5%
11 | CN(C)CCNC(=O)Nc1ccc(Cl)c(Cl)c1 | inconclusive: 18.5 µM [inhibitor, partial curve, poor fit] | –
12 | CCn1cc(C(=O)O)c(=O)c2cc(F)c(N3CCN(C(=S)Nc4ccc(OC)cc4)CC3)cc21 | inconclusive: 0.738 µM [inhibitor, full curve] | –
13 | Cc1ccc(OP(=O)(NCc2ccccc2)Oc2ccc(C)cc2)cc1 | inconclusive: 13.1 µM [inhibitor, single point] | –
14 | COc1ccc(S(=O)(=O)n2nc(OC(=O)c3ccco3)cc2N)cc1 | inconclusive: 18.5 µM [inhibitor, single point] | –
15 | Cc1ccnc(Nc2nc(-c3ccc(O)cc3)cs2)c1 | – | inactive: -5.77%
16 | Cc1nn(-c2ccc(F)cc2)c2nc(N)c(C#N)c(-c3ccc(O)c(O)c3)c12 | active: 10.4 µM | –
18 | COc1ccc(-c2c3c(=O)n(C)c(=O)n(C)c3cn2-c2cc(OC)ccc2OC)cc1 | – | inactive: -3.8% [at 5.75 µM]
19 | S=C1N(c2ccccc2)C(c2ccc(Br)cc2)N2CCCN12 (stereo not given) | inconclusive: 13.1 µM [inhibitor, single point] | –
20 | CCCn1c(NC(=O)c2cccc(C)c2C)nc2ccccc21 | active: 8.28 µM | –
21 | O=C1CC(c2ccccc2)CC(O)=C1C=NCC1CCCO1 (stereo not given) | inconclusive: 16.5 µM [inhibitor, single point] | –
22 | CCN(CC(=O)Nc1ccc(NC(C)=O)cc1)C(=O)c1ccccc1SCc1c(C)noc1C | – | inactive: -4.66%
23 | CC1CC(C)(C)NC(=S)N1CCCC(=O)N1CCN(c2ccc(F)cc2)CC1 (stereo not given) | – | inactive: 27.3%
24 | CCC(=O)Nc1ccc(NC(=O)c2ccccc2Cl)nc1 | inconclusive: 18.5 µM [inhibitor, single point] | –

Some of the entries above in a different format.
Row	SMILES	Potency	activity change, negative = inhibition
9	COc1cc(C2/C(=C(/O)c3ccc(OCC(C)C)cc3)C(=O)C(=O)N2CCN(C)C)ccc1O (stereo not given)	active: 11.7 µM	–
10	COC(=O)[C@@H]1[C@@H]2C[C@H]3c4[nH]c5ccccc5c4CCN3C[C@@H]2CC[C@@H]1O	–	inactive: -22.5%
11	CN(C)CCNC(=O)Nc1ccc(Cl)c(Cl)c1	inconclusive: 18.5 µM [inhibitor, partial curve, poor fit]	–
12	CCn1cc(C(=O)O)c(=O)c2cc(F)c(N3CCN(C(=S)Nc4ccc(OC)cc4)CC3)cc21	inconclusive: 0.738 µM [inhibitor, full curve]	–
13	Cc1ccc(OP(=O)(NCc2ccccc2)Oc2ccc(C)cc2)cc1	inconclusive: 13.1 µM [inhibitor, single point]	–

The list continues:

Row | SMILES | Potency | activity change, negative = inhibition
25 | Cc1ccc(-c2noc(CCC(=O)NCCN3CCc4ccccc4C3)n2)cc1 | inconclusive: 1.17 µM [inhibitor, partial curve, poor fit] | –
26 | FC(F)Oc1ccc(/C=N/c2c(-c3ccc(OC(F)F)cc3)nc3n2CCS3)cc1 | – | inactive: -13.6%
27 | COCCNC(=O)Cn1cc(C(=S)N2CCCCC2)c2ccccc21 | inconclusive: 5.22 µM [inhibitor, single point] | –
28 | CN(C(=O)CN(c1ccccc1)S(=O)(=O)c1ccc(F)cc1)C1CCS(=O)(=O)C1 (stereo not given) | – | inactive: 33%
29 | Cc1ccc(NC2CCCN(C(=O)c3ccccc3-c3ncc[nH]3)C2)cc1C (stereo not given) | – | inactive: 1.51%
30 | Cc1ccc(-n2c(SCC3CCCCO3)nnc2-c2ccco2)cc1 (stereo not given) | inconclusive: 1.47 µM [inhibitor, partial curve, poor fit] | –
31 | c1ccc2c(c1)oc1c(NCCN3CCOCC3)ncnc12 | inconclusive: 1.85 µM [inhibitor, partial curve] | –
32 | O=C(Nc1ccc(F)c(Cl)c1)Nn1cnnc1 | – | inactive: 9.55%
33 | O=C(NC(=S)NC1CCCCC1)c1ccccc1 | inconclusive: 11.7 µM [inhibitor, single point] | –
34 | CC1(C)Cc2c(sc3c2c(=N)n(Cc2ccco2)c(=O)n3Cc2ccc(F)cc2)CO1 | inconclusive: 0.37 µM [inhibitor, partial curve, poor fit] | –
35 | CCC(C)[C@H](NC(=O)NC1CCN(Cc2ccccc2)CC1)C(=O)OC (stereo not given in full) | inconclusive: 0.0047 µM [inhibitor, full curve, poor fit] | –
36 | N#Cc1ccc(CN2CCN(C(=O)CCNS(=O)(=O)c3ccc(F)c(Cl)c3)CC2)cc1 | inconclusive: 18.5 µM [inhibitor, single point] | –
37 | Cc1onc(-c2ccccc2Cl)c1C(=O)Nc1ccc(Cl)cn1 | – | inactive: 0.882%
38 | CCc1ccc(OCCNC(=O)OCc2ccccc2)cc1 | – | inactive: 28.2%
39 | Fc1ccc(-c2n[nH]c(=S)n2Cc2ccccc2)cc1 | inconclusive: 18.5 µM [inhibitor, single point] | –
40 | COc1ccccc1/C=N/Nc1cc(N(C)C)nc(N(C)C)n1 | inconclusive: 14.7 µM [inhibitor, single point] | –
41 | Cc1cc(N=Nc2ccc(Cl)cc2)cc(CN2CCOCC2)c1O | active: 2.33 µM | –
42 | Cc1[nH]c2ccccc2c1/C=N/NC(N)=S | inconclusive: 0.0029 µM [inhibitor, full curve, poor fit] | –
43 | O=[N+]([O-])c1c(C(Cl)Cl)nn(-c2ccccc2)c1N1CCCC1 | inconclusive: 18.5 µM [inhibitor, single point] | –
44 | O=C(Oc1cc(=O)oc2ccccc12)c1ccccc1 | – | inactive: 7.47%
45 | COc1ccc([C@H]2[C@H](C(=O)C(C)(C)C)N3N=Cc4ccccc4C3[C@]23N=C(c2ccccc2)OC3=O)cc1OC (stereo not given in full) | inconclusive: 14.7 µM [inhibitor, partial curve, poor fit] | –
46 | C/C(=N\Nc1ccc(C#N)cc1[N+](=O)[O-])c1ccc(O)cc1 | inconclusive: 18.5 µM [inhibitor, single point] | –
47 | COc1ccccc1CCNS(=O)(=O)c1cc2c3c(c1)C(C)C(=O)N3CCC2 (stereo not given) | inconclusive: 18.5 µM [inhibitor, single point] | –
48 | CCOC(=O)C1(Cc2cccc(OC)c2)CCCN(Cc2c(C)nn(C(C)C)c2C)C1 (stereo not given) | inconclusive: 11.7 µM [inhibitor, single point] | –

Row | SMILES | Potency | activity change, negative = inhibition
49 | CCCc1cc(C(=O)Nc2ccc(C(=O)c3ccccc3)cc2)n(C)n1 | inconclusive: 18.5 µM [inhibitor, single point] | –
50 | CCN1CCN(c2cc(C)c3cc(NC(=S)N4CCN(c5ccccc5)CC4)ccc3n2)CC1 | – | inactive: -18.9%
51 | Cc1cc(C(=O)N/N=C/c2ccc(-c3ccc([N+](=O)[O-])cc3Cl)o2)n[nH]1 | inconclusive: 11.7 µM [inhibitor, partial curve] | –
52 | COc1cc(/C=C2\SC(=S)N(NC(=O)c3ccccc3O)C2=O)ccc1O | – | inactive: -12.6%
53 | Cc1ccc(C(=O)Cc2nc3ccccc3[nH]2)cc1 | inconclusive: 0.415 µM [inhibitor, full curve] | –
54 | CCOC(=O)/C(=C/Nc1ccc(F)cc1)[N+](=O)[O-] | – | inactive: 28.5%
55 | O=S(=O)(c1ccc(=S)[nH]c1)N1CCCCC1 | inconclusive: 2.94 µM [inhibitor, partial curve, poor fit] | –
56 | CCCCN(CC)C(=O)Cn1ncc2c3ccccc3n(CCC)c2c1=O | inconclusive: 13.1 µM [inhibitor, partial curve] | –
57 | CCCc1cc(-c2ccc(O)c(OCC)c2)c(C#N)c(N)n1 | inconclusive: 16.5 µM [inhibitor, single point] | –
58 | CC(C)(C)c1ccc(/C=N/NC(=S)Nc2cccnc2)cc1 | inconclusive: 14.7 µM [inhibitor, single point] | –
59 | O=C(NCc1ccccc1)c1c[nH]c2ccc(S(=O)(=O)Nc3ccc4c(c3)OCCO4)cc2c1=O | active: 14.7 µM | –
60 | COC(=O)c1cc(-c2ccc(OC)c(OC)c2)on1 | inconclusive: 5.22 µM [inhibitor, partial curve, poor fit] | –
61 | CCn1c2ccccc2c2cc(NC(=O)COc3ccccc3)ccc21 | inconclusive: 13.1 µM [inhibitor, single point] | –
62 | COc1cc(-c2nc3ccc(C)cn3c2NCc2ccccc2)ccc1SC1CCCCC1 | active: 4.65 µM | –
63 | O=C1NC(=S)NC(=O)C1=Cc1cccc2cc3ccccc3cc12 | inconclusive: 13.1 µM [inhibitor, single point] | –
64 | CCN(CC(=O)Nc1ccc(NC(C)=O)cc1)C(=O)CN1C(=O)C2CCCCC2C1=O (stereo not given) | inconclusive: 18.5 µM [inhibitor, single point] | –
65 | Cn1c(CSc2nc3ccccc3n2C)nc2ccccc21 | – | inactive: 13.9%
66 | COc1cc(/C=C2\SC(N)=NC2=O)cc(OC)c1 | inconclusive: 18.5 µM [inhibitor, single point] | –
67 | Cc1nn(Cc2ccccc2)c(Cl)c1/C=C/C(=O)OC(C(=O)NC(N)=O)C(C)C (stereo not given) | – | inactive: -10.7%
68 | Cc1ccc(N2C(=O)NC(=O)/C(=C\C=C\c3ccco3)C2=O)cc1C | – | inactive: 9.01%
69 | CCOc1cc(C(=O)Nc2cccc(C(C)=O)c2)ccc1OCC(=O)N1CCCCC1 | inconclusive: 0.329 µM [inhibitor, full curve, poor fit] | –
70 | COc1ccc(/C=C/C(=O)Nc2ccccc2C(=O)O)cc1OC | inconclusive: 21.3 µM [inhibitor, single point] | –
